Measurements reported in PubChem BioAssay AID1508597 (Cure First, 2020).
Shown is a random part of the about 2,100 reagents, in one setting of the screen. 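Calls flag viability under 80% in either arm, not effects specific to rucaparib; the reference for percent is not stated.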 A number with no mark means an inactive call. A reagent listed more than once was tested more than once; the source does not tell the runs apart. Reagent sequences are not shown. Not given: the 100% reference.

Aim: 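Knock-downs altering ovarian cancer cell survival with or without PARP inhibitor rucaparib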 (primary screen)
System: human ovarian carcinoma lines grown from tumours: OCI-P5x (papillary serous) and OCI-C5x (clear cell)
Reagent: siRNA pool against human genes, 1.25 pmol siRNA per well
Timing: 72 h or 96 h, depending on the cell culture
Treatment: rucaparib 20 µM (about IC30) or vehicle, present until read-out
Rucaparib or vehicle: Rucaparib
Cell line: OCI-C5x (clear cell)
Detection: 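Luminescent ATP-based viability assay read 72 or 96 h after transfection, depending on culture, given as normalised percent viability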
Scale: viability, normalised: higher = more viable cells remaining
Rule for the call: 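a well counts as a hit if its normalised viability is under 80 percent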
Meaning of the calls: active = viability under 80%; inactive = viability 80% or more

target,technical replicate,"viability, normalised (%)"
DPH5,1,32.7 (active)
DPH5,2,32.7 (active)
DPH5,3,27.5 (active)
FLT3,1,71.8 (active)
FLT3,2,49 (active)
FLT3,3,59.5 (active)
NCOA2,1,35.6 (active)
NCOA2,2,37.7 (active)
NCOA2,3,37.9 (active)
ACE,1,30.3 (active)
ACE,2,52.2 (active)
ACE,3,44 (active)
STKLD1,1,41.1 (active)
STKLD1,2,58.1 (active)
STKLD1,3,54.2 (active)
BCL2L1,1,15.2 (active)
BCL2L1,1,20 (active)
BCL2L1,2,13.8 (active)
BCL2L1,2,20.5 (active)
BCL2L1,3,19.3 (active)
BCL2L1,3,13 (active)
DGKA,1,42.6 (active)
DGKA,2,42.3 (active)
DGKA,3,37.7 (active)
PLK4,1,69.4 (active)
PLK4,2,23.5 (active)
PLK4,3,49.5 (active)
LATS1,1,45.7 (active)
LATS1,1,42.5 (active)
LATS1,2,41.6 (active)
LATS1,2,49.2 (active)
LATS1,3,63.5 (active)
LATS1,3,68.1 (active)
PHF6,1,50.7 (active)
PHF6,2,44.3 (active)
PHF6,3,34.1 (active)
SMNDC1,1,46.8 (active)
SMNDC1,2,59 (active)
SMNDC1,3,45.4 (active)
MCCC1,1,58.7 (active)
MCCC1,2,44.3 (active)
MCCC1,3,55.6 (active)
FCSK,1,57.5 (active)
FCSK,2,37.8 (active)
FCSK,3,56.6 (active)
RFC1,1,51.1 (active)
RFC1,2,45.9 (active)
RFC1,3,51.8 (active)
CHAF1A,1,55.3 (active)
CHAF1A,1,40.6 (active)
CHAF1A,2,31.9 (active)
CHAF1A,2,47.6 (active)
CHAF1A,3,51.7 (active)
CHAF1A,3,44.2 (active)
MLLT10,1,44.3 (active)
MLLT10,2,36.2 (active)
MLLT10,3,42.9 (active)

Sorted by “viability, normalised (%)” (lowest first): some entries from above
target,technical replicate,"viability, normalised (%)"
CHAF1A,3,44.2 (active)
MLLT10,1,44.3 (active)
CHAF1A,3,51.7 (active)
